{"source": "patent US12516086B2", "about": "(SRI International, priority 2021, dated 2026)", "test_system": "HT22 and GT1/7 neuronal cell lines vs CTX TNA2 astrocytes and HMC3 microglia", "test": "Uptake of MGS_NOE3 tetramers across cell lines by quantitative flow cytometry", "type": "cell-based, mouse, rat, human", "details": "200 nM, 1 h", "description": "It must be on the tetrameric core to function. […] The number of molecules of peptide internalized per cell was determined by a quantitative flow cytometry assay. […] MGS_NOE3_V1-4 and MGS_NOE3_V2-4 display a 5-6-fold specificity for neurons over astrocytes and 3-fold specificity compared to microglia. […] Incubations were performed for 1 h at 37° C. […] Uptake was determined by flow cytometry assay.\nPeptide concentration and incubation time as well as cell line used is indicated in each figure. […] Cells were removed by trypsinization. Flow cytometry was performed on a BD FACSCelesta, and data were analyzed using FlowJo_v10.8. Cells were gated based on the forward and side scatter to include only viable cells and a minimum of 10,000 events were counted. For absolute peptide uptake per cell, a standard curve was generated using Quantum™ Alexa Fluor 647 microspheres. MFI was determined at 50% at peak height. Molecules internalized per cell were determined by the standard curve relating MESF to MFI and divided by the number dye molecules/MGS conjugate. GraphPad Prism® was used for non-linear regression curve fitting to calculate an EC50.", "note": "Some entries share one result that the patent states for a list of compounds.", "data": [{"substance": "MGS_NOE3_V1-4: tetrameric version of GFHNVYPYTWGGFSDIDLMADEI (SEQ ID NO:1) (tetrameric construct)", "values": [{"measurement": "Specificity for neurons over astrocytes", "value": "5-6 fold"}]}, {"substance": "MGS_NOE3_V2-4: tetrameric version of Ac-GFHNVYPYTWGGFSDIDLMADEI (SEQ ID NO:5) (tetrameric construct; N-terminal acetyl; MOD_RES 1 acetylation)", "values": [{"measurement": "Specificity for neurons over astrocytes", "value": "5-6 fold"}]}]}
